Values of other authors as cited in patent US20030060469A1, “Use of substances that act as cascade inhibitors of the raf/mek/erk signal cascade, for producing a medicament to treat dna and rna viruses” (priority 2000, published 2003).
For at least one compound, name, drawing or mass did not settle the structure.

System: colon carcinoma
Settings: mouse model; oral administration; cited from earlier work

## O=C(NOCC1CC1)c1ccc(F)c(F)c1Nc1ccc(I)cc1Cl [PD184352, 2-(2-chloro-4-iodo-phenylamino)-N-cyclopropyl-methoxy-3,4-difluoro-benzamide]
  growth of colon carcinoma: could efficiently inhibit the growth of colon carcinoma
